Experimental data published in patent US7300784B2 (priority 2001, dated 2007).
For at least one compound, name, drawing or mass did not settle the structure.

Test system: nitrile hydratase of Rhodococcus sp. Cr4
Type: biochemical
Conditions: compound 1.0 mM; Free = 100; HMBN substrate, 20° C.
Experimental: The standard assay method for the nitrile hydratase activity used in the following Examples as follows. The enzyme reaction is initiated by adding 3-cyanopyridine or 2-hydroxy-4-methylthiobutyronitrile (HMBN) as the substrate compound. In the case of 3-cyanopyridine, incubation was continued at 20° C. for 10 minute, in the case of HMBN, at 20° C. for 15 minutes. When 3-cyanopyridine was used in the reaction, 0.1 ml of 2 N hydrochloric acid was added to the reaction and the mixture was shaken vigorously to stop the reaction; when HMBN was used in the reaction, 0.1 ml of the reaction solution was added to 0.9 ml of 0.1% (v/v) phosphoric acid and the mixture was shaken vigorously to stop the reaction. The reaction solution was analyzed by HPLC.
• 10% (v/v) HMBN was added to initiate the reaction. • The mixture was incubated with shaking at 20° C. for 10 minutes. • 0.1% (v/v) H3PO4 was added to stop the reaction. • Centrifugation. • HPLC analysis.
Inhibitors to the enzyme were studied. With the standard composition of reaction solution shown in Table 1, various inhibitors were added at a final concentration 1.0 mM or 0.1 mM to the solutions containing 2.92 U enzyme; after the mixtures were incubated at 20° C. for 10 minutes, the reaction was carried out for 15 minutes.

CCN(CC)C(=S)S [Diethyldithiocarbamate]
Relative activity (%): 97.7%
